PubChem BioAssay AID602196 – INSERM | 2012
Here is one part, drawn at random, of about 23,000 reagents tested. 455 of them (2%) were called active. 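Active includes both protection and sensitisation; some change values fall well beyond the stated -50 to +50 range.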 Unmarked entries are inactive. Reagents against one gene are numbered here. Not stated in the record: the amount of reagent.

Test: 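Genes whose knock-down alters cisplatin killing of lung cancer cells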
Cells: human A549 lung cancer cells
Reagent: siRNA pair against human genes
Duration: 48 h transfection before cisplatin; time from cisplatin to read-out not stated
Conditions: cisplatin at a dose killing half of control-siRNA cells; exact dose and duration not given
Measured: 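Cisplatin cell death as a shift from the 50% death seen with control siRNA; siRNAs toxic or growth-blocking alone scored 0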
Reading the numbers: two-siRNA summed score (-2 to +2): higher = both siRNAs protect from cisplatin killing; -2 means both sensitise; mean protection from cisplatin (shift in death) and protection from cisplatin (shift in death), siRNA C and protection from cisplatin (shift in death), siRNA D: higher = protection from cisplatin killing
Rule for the call: 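Each siRNA scores 0 if harmful alone by LDH or WST-1, otherwise +1 if it reduces and -1 if it increases cisplatin killing; a gene is active when both siRNAs agree (sum +2 or -2)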
Meaning of the calls: active = both siRNAs shift cisplatin killing the same way; inactive = no consistent shift, or siRNA harmful alone

gene | reagent no. | two-siRNA summed score (-2 to +2) | mean protection from cisplatin (shift in death) (%) | protection from cisplatin (shift in death), siRNA C (%) | protection from cisplatin (shift in death), siRNA D (%)
LOC401254 | 1 | 0 | 10.5 | 13.4 | 7.5
MTMR3 (myotubularin related protein 3) | 1 | 0 | 8.2 | 7 | 9.3
ZNHIT3 (zinc finger HIT-type containing 3) | 1 | -1 | -10.4 | -16 | -4.9
LOC440125 | 1 | 0 | 12.8 | 17.5 | 8.2
FOXRED1 (FAD dependent oxidoreductase domain containing 1) | 1 | -1 | -9.8 | -0.9 | -18.8
LINC02762 (long independently transcribed non-coding RNA 2762) | 1 | 0 | 9.7 | 15 | 4.3
SULT1A3 (sulfotransferase family 1A member 3) | 1 | 0 | -6.5 | -11.7 | -1.3
GCNT4 (glucosaminyl (N-acetyl) transferase 4) | 1 | 0 | -3.1 | -2.1 | -4.1
H2BC3 (H2B clustered histone 3) | 1 | 0 | 3 | -1.9 | 7.9
PCDH17 (protocadherin 17) | 1 | 0 | -4.8 | -16.2 | 6.6
IFITM2 (interferon induced transmembrane protein 2) | 1 | 0 | 18.5 | 5.9 | 31.1
SASS6 (SAS-6 centriolar assembly protein) | 1 | 1 | 19.2 | 20.9 | 17.5
MAG (myelin associated glycoprotein) | 1 | 0 | 2.1 | 0.3 | 3.9
JDP2 (Jun dimerization protein 2) | 1 | 1 | 6.2 | -4.5 | 16.9
ANO4 (anoctamin 4) | 1 | 0 | 8.6 | 13 | 4.2
LOC387886 | 1 | 0 | 8.8 | 4 | 13.6
SLFN12 (schlafen family member 12) | 1 | 0 | -5.4 | -5.8 | -5.1
LOC389764 | 1 | 0 | 2.5 | 7.8 | -2.9
ZNF823 (zinc finger protein 823) | 1 | 1 | 10.8 | 2.2 | 19.4
TRIM10 (tripartite motif containing 10) | 1 | 0 | 3.5 | 7.5 | -0.6
PRIMPOL (primase and DNA directed polymerase) | 1 | 0 | 2.8 | 1 | 4.6
ATP10A (ATPase phospholipid transporting 10A (putative)) | 1 | 0 | 15.5 | 7.1 | 23.8
ADAMTS3 (ADAM metallopeptidase with thrombospondin type 1 motif 3) | 1 | 1 | 16.3 | 20.8 | 11.9
NPM1P39 (nucleophosmin 1 pseudogene 39) | 1 | 0 | 5.3 | 1 | 9.7
RELT (RELT TNF receptor) | 1 | 1 | 8.7 | 1.5 | 15.9
UTP4 (UTP4 small subunit processome component) | 1 | 0 | 14.2 | 12.9 | 15.6
AFG3L1P (AFG3 like matrix AAA peptidase subunit 1, pseudogene) | 1 | 0 | 5.7 | 5.4 | 6
PAH (phenylalanine hydroxylase) | 1 | 0 | -7.8 | -6.9 | -8.8
LHX5 (LIM homeobox 5) | 1 | 0 | 3 | -9.6 | 15.7
ASCC2 (activating signal cointegrator 1 complex subunit 2) | 1 | 0 | -3.6 | -7.1 | 0
LOC400876 | 1 | 1 | 13.1 | 21.9 | 4.2
YRDC (yrdC N6-threonylcarbamoyltransferase domain containing) | 1 | 0 | 5.9 | 7.9 | 3.9
DDX6 (DEAD-box helicase 6) | 1 | 0 | 0.7 | 9.9 | -8.6
TMEM207 (transmembrane protein 207) | 1 | 0 | 3.3 | 7.1 | -0.5
MME (membrane metalloendopeptidase) | 1 | 0 | 1.8 | -6.1 | 9.6
KIF1C (kinesin family member 1C) | 1 | -2 (active) | -16 | -21.1 | -11
REXO4 (RNA exonuclease 4) | 1 | 0 | 12.8 | 13.2 | 12.4
CNNM3 | 1 | -1 | -10 | 0.1 | -20.1

Continued, starting with the last 7 of the part before.
gene | reagent no. | two-siRNA summed score (-2 to +2) | mean protection from cisplatin (shift in death) (%) | protection from cisplatin (shift in death), siRNA C (%) | protection from cisplatin (shift in death), siRNA D (%)
YRDC (yrdC N6-threonylcarbamoyltransferase domain containing) | 1 | 0 | 5.9 | 7.9 | 3.9
DDX6 (DEAD-box helicase 6) | 1 | 0 | 0.7 | 9.9 | -8.6
TMEM207 (transmembrane protein 207) | 1 | 0 | 3.3 | 7.1 | -0.5
MME (membrane metalloendopeptidase) | 1 | 0 | 1.8 | -6.1 | 9.6
KIF1C (kinesin family member 1C) | 1 | -2 (active) | -16 | -21.1 | -11
REXO4 (RNA exonuclease 4) | 1 | 0 | 12.8 | 13.2 | 12.4
CNNM3 | 1 | -1 | -10 | 0.1 | -20.1
LOC400921 | 1 | 0 | 2.2 | 0 | 4.5
SYK (spleen associated tyrosine kinase) | 1 | 0 | 8 | 20.7 | -4.6
LOC129870 | 1 | 1 | 4.2 | 16.5 | -8.1
PLCG1 (phospholipase C gamma 1) | 1 | 0 | 2.3 | -2 | 6.6
RANBP6 (RAN binding protein 6) | 1 | -1 | -7.2 | 1.4 | -15.8
CHST14 (carbohydrate sulfotransferase 14) | 1 | 0 | 8.3 | 2.5 | 14
SWI5 (SWI5 homologous recombination repair protein) | 1 | 1 | 21.7 | 9.4 | 34
LINC02864 (long independently transcribed non-coding RNA 2864) | 1 | 1 | 5 | -1.9 | 12
FLJ36980 | 1 | 0 | 6.9 | 7.8 | 6
SCAF11 (SR-related CTD associated factor 11) | 1 | 0 | -2.9 | -18.8 | 13.1
LOC440622 | 1 | 0 | 16.2 | 9.2 | 23.2
CARS1 (cysteinyl-tRNA synthetase 1) | 1 | 0 | 3.5 | 2.1 | 4.8
PLA2G2E (phospholipase A2 group IIE) | 1 | 0 | 4.2 | 10 | -1.6
NIP7 (nucleolar pre-rRNA processing protein NIP7) | 1 | 0 | 6.9 | 18 | -4.2
SEMA4D (semaphorin 4D) | 1 | -1 | 2.6 | 15.9 | -10.6
SEMA4D (semaphorin 4D) | 2 | 1 | 4.9 | 7.2 | 2.6
DNAAF5 (dynein axonemal assembly factor 5) | 1 | 0 | -2.3 | -5.1 | 0.5
MINAR1 (membrane integral NOTCH2 associated receptor 1) | 1 | 0 | 6 | 8.6 | 3.3
TGM5 (transglutaminase 5) | 1 | -1 | -23 | -12.1 | -33.9
